Tests used:
[1] = test system: NMDA receptor (noncompetitive MK-801 site), rat forebrain; assay type: binding
rat = assay type: in vivo; details: day 5 vs day 1

CN1CC[C@]23c4c5ccc(O)c4O[C@H]2[C@@H](O)C=C[C@H]3[C@H]1C5 [Morphine]
displacement of [3H]MK-801 binding [1]: did not displace | Ki ([1]; read-out: [3H]MK-801 Ki, forebrain): > 100 µM | shift in ED50 for IT morphine in morphine treated group (rat): 37 fold

Source: US6008258A (priority 1998, dated 1999)
